Reference: PubChem BioAssay AID540276 (National Center for Advancing Translational Sciences (NCATS), 2011)
Where “and” joins values, the source holds several entries; their conditions need not be identical. Equal entries are not always repeated. The campaign covered roughly 300,000 compounds. About 5,400 (1.8%) were called active. The inconclusive results got no clear call from the source; some entries with a clear call stand among them for comparison. The call rests on the fitted dose curve; tested in HEK293 cells. A potency beside an inconclusive call is a rough fit, not a confirmed value.

Test: qHTS for inhibitors of binding or entry into cells for Marburg Virus
Conditions: Marburg virus pseudotyped entry inhibition, cell reporter; series mostly up to 37.8 µM
Potency means the concentration at half of the fitted maximal effect.

Row | Compound | Potency
1 | CCOc1ccc(NC(=O)CC2C(=O)Nc3ccccc3N2C(=O)c2ccccc2)cc1 (stereo unspecified) | inconclusive: 2.82 µM [activator, single point]
2 | O=C1OC(=O)C2C3CCC(O3)C12 (stereo unspecified) | inconclusive: 8.2 µM [inhibitor, partial curve] and inconclusive: 794 nM [inhibitor, full curve]
3 | CCCc1cc(C(=O)N(C)CC(=O)Nc2ccc(OCC)c(OCC)c2)sc1C | inconclusive: 17.8 µM [inhibitor, single point]
4 | CCOC(=O)/C(N=Nc1ccc2c(c1)OCO2)=C(\C)O | inconclusive: 6.31 µM [activator, single point]
5 | CN(C)CCCNCC(=O)Nc1ccc(Cl)cc1C(=O)c1ccccc1 | active: 11.2 µM
6 | O=c1c2c(-c3ccccc3)csc2ncn1/N=C/c1cccc([N+](=O)[O-])c1O | inconclusive: 11.2 µM [inhibitor, partial curve, poor fit]
7 | CCCCCC(=O)N1C[C@@H](n2cc(COC(=O)c3ccccc3)nn2)[C@H](O)C[C@H]1c1ccc(Cl)cc1 | inconclusive: 28.1 µM [inhibitor, partial curve, poor fit]
8 | c1ccc2c(Nc3nc4c(s3)CCCC4)cccc2c1 | inconclusive: 6.31 µM [activator, single point]
9 | O=C(N/N=C/c1ccc(OC(=O)c2ccccc2Cl)cc1)c1ccccn1 | inconclusive: 35.5 µM [inhibitor, single point]
10 | CCc1ccc(/C=C(/C#N)C(N)=S)s1 | inconclusive: 3.55 µM [activator, single point]
11 | O=C(CCCc1c[nH]c2ccccc12)N1CCN(S(=O)(=O)c2cccs2)CC1 | inactive
12 | CCOc1cccc(CNCCNC(=O)c2nonc2N)c1 | inconclusive: 3.16 µM [inhibitor, partial curve, poor fit]
13 | CS(=O)(=O)N1Cc2ccccc2CC1C(=O)OCC(=O)NCCc1ccc(S(N)(=O)=O)cc1 (stereo unspecified) | inconclusive: 35.5 µM [activator, single point]
14 | COc1ccc(C)cc1N(C(=O)CNC(=O)c1ccco1)C(C(=O)NCC1CCCO1)c1ccccc1 (stereo unspecified) | inconclusive: 8.91 µM [inhibitor, single point]
15 | CCOC(=O)c1cnc(SC)nc1Oc1cccc(NS(=O)(=O)c2ccc(C)cc2)c1 | inconclusive: 16.4 µM [inhibitor, single point]
16 | O=C(NCCCn1ccnc1)c1ccc(NS(=O)(=O)c2ccc(Cl)c(Cl)c2)cc1 | inconclusive: 2.82 µM [inhibitor, single point]
17 | CCN(CC)C(=O)Cn1cc(C(=O)C(=O)Nc2ccc3c(c2)OCCO3)c2ccccc21 | inconclusive: 35.5 µM [inhibitor, single point]
18 | COc1cccc(/C=C2\SC(=S)N(CCCC(=O)Nc3cc(C)on3)C2=O)c1 | inactive
19 | COc1ccc(N2C(=O)CSC2c2ccc([N+](=O)[O-])cc2)cc1 (stereo unspecified) | inconclusive: 10 µM [inhibitor, partial curve, poor fit]
20 | O=S(=O)(Nc1cccc(-c2ccc(N3CCCCCC3)nn2)c1)c1ccc(F)cc1 | inactive
21 | COC(=O)c1cc(COC(=O)c2ccc(OC)c(S(=O)(=O)N3CCCC3)c2)oc1C | inconclusive: 35.5 µM [inhibitor, single point]

Row | Compound | Potency
22 | Cc1ccc(NC(=O)NC(=O)CSc2nnc(-c3ccc(Cl)cc3Cl)n2N)c(C)c1 | inactive
23 | CC(=O)Nc1ccc(-c2nnn(CC(=O)Nc3ccc4c(c3)OCO4)n2)cc1Cl | inactive
24 | O=S(=O)(NCc1ccccc1)c1ccc(Cl)cc1 | inactive
25 | CCN=C1S/C(=C\c2cn(C(C)=O)nc2-c2ccccc2)C(=O)N1CC | inconclusive: 14.6 µM [inhibitor, partial curve, poor fit]
26 | COc1cc2c(cc1NC(=O)c1ccccc1F)CCCC2 | inconclusive: 0.794 µM [activator, full curve, poor fit]
27 | CC(=O)c1ccc(OCCCC(=O)OCC(=O)N2CCN(c3ccccc3)CC2)cc1 | inactive
28 | CC(NCc1ccc(-c2ccccc2)cc1)C(O)c1ccccc1 (stereo unspecified) | inconclusive: 1.84 µM [inhibitor, full curve, poor fit]
29 | COc1ccccc1C(=O)NNS(=O)(=O)c1ccc(F)cc1 | inactive
30 | Cc1ccc(C(=O)Nc2ccc(S(=O)(=O)Nc3cnc4ccccc4n3)cc2)cc1 | inconclusive: 3.16 µM [activator, full curve]
31 | COc1ccc(C(=O)C2CCCN(Cc3c[nH]c4ccccc34)C2)c(OC)c1 (stereo unspecified) | inconclusive: 23.1 µM [inhibitor, partial curve, poor fit]
32 | CC(=O)Nc1ccc(NC(=O)C(C)OC(=O)/C=C/c2cn(-c3ccccc3)nc2-c2cccnc2)cc1 (stereo unspecified) | inconclusive: 25.1 µM [inhibitor, single point]
33 | CC(=O)c1cc(C(=O)NC2CCCc3c2cnn3-c2cc(C)cc(C)c2)[nH]n1 (stereo unspecified) | inactive
34 | CC12CC3(C)CC(C)(C1)CC(C(=O)NC(=S)N1CCOCC1)(C2)C3 | inconclusive: 8.2 µM [inhibitor, partial curve]
35 | O=C(Cn1c(=O)c2ccccc2n(CC(=O)Nc2ccc(Cl)cc2)c1=O)NCCc1ccccc1 | inconclusive: 22.4 µM [inhibitor, single point]
36 | O=C(/C=C/c1cccs1)N1CCN(Cc2ccc3c(c2)OCO3)CC1 | inconclusive: 35.5 µM [activator, single point]
37 | COc1ccc(Cn2c(=O)[nH]c3cc(C(=O)NC4CCN(Cc5ccccc5)CC4)ccc32)cc1 | active: 9.2 µM
38 | C=C(C)[C@@H]1CC=C(CN2CCN(Cc3ccccc3)CC2)CC1 | active: 10 µM
39 | CCc1ccc(-n2nc3ccc(NC(=O)c4ccc5c(c4)OCO5)cc3n2)cc1 | inactive
40 | CCCCn1c(N)c(-c2nc3ccccc3s2)c2c([N+](=O)[O-])nn(CC)c(=O)c21 | inconclusive: 3.26 µM [inhibitor, partial curve, poor fit]
41 | COC(=O)c1cc(NC(=O)C2COc3ccccc3O2)ccc1Cl (stereo unspecified) | inconclusive: 29.1 µM [inhibitor, single point]

3 structures already listed, sorted by formula weight, low to high.
Row | Compound | Potency
26 | COc1cc2c(cc1NC(=O)c1ccccc1F)CCCC2 | inconclusive: 0.794 µM [activator, full curve, poor fit]
38 | C=C(C)[C@@H]1CC=C(CN2CCN(Cc3ccccc3)CC2)CC1 | active: 10 µM
25 | CCN=C1S/C(=C\c2cn(C(C)=O)nc2-c2ccccc2)C(=O)N1CC | inconclusive: 14.6 µM [inhibitor, partial curve, poor fit]
